# These are yes or no findings as the source states them, for the method shown. Binding seen in cells or lysates may run through a third protein. Some binding calls cover weakened binding; strength is not graded here.
# The chains behind the UniProt entries cited, without tags or fusion partners.
# UniProt Q16665: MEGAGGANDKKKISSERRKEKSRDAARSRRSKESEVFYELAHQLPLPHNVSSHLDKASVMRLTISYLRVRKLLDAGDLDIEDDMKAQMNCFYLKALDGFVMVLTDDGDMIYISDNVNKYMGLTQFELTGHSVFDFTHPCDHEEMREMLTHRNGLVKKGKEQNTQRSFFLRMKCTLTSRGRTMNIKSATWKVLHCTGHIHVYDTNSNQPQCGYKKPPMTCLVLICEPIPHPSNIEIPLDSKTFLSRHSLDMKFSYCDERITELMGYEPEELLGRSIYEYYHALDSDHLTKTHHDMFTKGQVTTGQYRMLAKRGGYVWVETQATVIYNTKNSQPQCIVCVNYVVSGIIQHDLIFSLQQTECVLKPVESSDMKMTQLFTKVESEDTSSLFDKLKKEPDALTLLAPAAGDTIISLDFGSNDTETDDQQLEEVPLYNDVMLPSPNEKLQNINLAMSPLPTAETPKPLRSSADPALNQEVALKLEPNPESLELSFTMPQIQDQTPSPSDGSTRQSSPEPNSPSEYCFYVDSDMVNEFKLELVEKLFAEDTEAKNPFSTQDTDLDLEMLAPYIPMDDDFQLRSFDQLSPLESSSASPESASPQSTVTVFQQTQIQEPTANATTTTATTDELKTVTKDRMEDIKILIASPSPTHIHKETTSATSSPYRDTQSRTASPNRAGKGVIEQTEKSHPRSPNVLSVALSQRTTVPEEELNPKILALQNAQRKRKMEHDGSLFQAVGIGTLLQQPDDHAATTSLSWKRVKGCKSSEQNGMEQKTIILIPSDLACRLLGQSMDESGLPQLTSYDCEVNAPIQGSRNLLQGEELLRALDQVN
# Biological target: T1, friend leukemia integration 1 (FLI1) (human (endogenous in EA.hy926)) (UniProt Q01543)
# T1 sequence: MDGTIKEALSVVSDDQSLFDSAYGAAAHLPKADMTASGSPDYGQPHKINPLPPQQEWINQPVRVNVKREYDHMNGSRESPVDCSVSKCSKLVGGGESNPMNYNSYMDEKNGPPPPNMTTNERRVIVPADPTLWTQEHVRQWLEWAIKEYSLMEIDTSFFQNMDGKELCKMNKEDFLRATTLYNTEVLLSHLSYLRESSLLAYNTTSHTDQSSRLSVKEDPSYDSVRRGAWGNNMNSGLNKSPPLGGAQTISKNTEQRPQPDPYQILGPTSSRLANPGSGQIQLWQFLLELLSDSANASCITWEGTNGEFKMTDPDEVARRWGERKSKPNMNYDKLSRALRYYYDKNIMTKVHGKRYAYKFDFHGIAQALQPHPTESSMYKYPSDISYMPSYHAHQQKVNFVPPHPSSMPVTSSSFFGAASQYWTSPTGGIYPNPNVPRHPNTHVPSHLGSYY
# Assay: co-IP; EA.hy926 cells with or without 16 h of hypoxia (1% O2); NP40 lysate, 1 mg protein, 1 μg anti‐FLI1 monoclonal antibody (MA1‐196) or homologous IgG overnight at 4 °C, Dynabeads Protein A, western blot for FLI1 and HIF‐1α
substance,measurement,value
hypoxia‐inducible factor 1α (HIF‐1α) (from UniProt Q16665 1-826),binding,binds

# Reference: article PMC8329784
